Experimental data: PubChem BioAssay AID1671195 (Yale University, 2021)

- Test: 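Knockdowns that increase or decrease uptake of fluorescent LDL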 (primary screen)
- System: human Huh7 hepatoma cells
- Knock-down reagent: siRNA pool against human genes, 18 nM
- Time to read-out: about 2 to 2.5 days of knockdown, then 8 h LDL uptake
- Challenge: DiI-labelled LDL at 30 µg/ml for 8 h, in lipoprotein-deficient serum medium
- Measured: 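Fluorescent LDL signal imaged in cells, scaled to the plate median, robust z-score for each replicate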
- Direction: robust z-score: higher = more LDL uptake after knockdown
- Rule for the call: 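a gene counts as active if at least two replicate z-scores exceed ±2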
In all, the deposit lists about 22,000 reagents; shown is an unselected part. Over the whole deposit, about 1,510 (6.9%) are marked active. 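Active includes knockdowns raising or lowering LDL uptake; positive z-scores mean more uptake, negative mean less.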 Reagent sequences are not shown.

no.	gene symbol	robust z-score, replicate 1	robust z-score, replicate 2	robust z-score, replicate 3	outcome
1	POU1F1 (POU class 1 homeobox 1)	1.06	1.1	1.5	inactive
2	HNF4G (hepatocyte nuclear factor 4 gamma)	1.03	0.469	0.873	inactive
3	MVB12A (multivesicular body subunit 12A)	0.244	0.601	0.464	inactive
4	LOC390855 (retired record)	-0.819	-0.38	-0.523	inactive
5	TLCD4 (TLC domain containing 4)	-0.496	0.192	-0.458	inactive
6	TUT7 (terminal uridylyl transferase 7)	-0.193	0.439	0.0991	inactive
7	PLPPR2 (phospholipid phosphatase related 2)	0.543	0.739	1.09	inactive
8	SBNO2 (strawberry notch homolog 2)	-0.915	-1.15	-0.947	inactive
9	TRIM24 (tripartite motif containing 24)	-1.85	-2.22	-1.71	inactive
10	DGAT2-DT (DGAT2 divergent transcript)	0.986	0.712	0.813	inactive
11	KCNC1 (potassium voltage-gated channel subfamily C member 1)	1.13	1.51	1.01	inactive
12	FASTKD1 (FASTK mitochondrial RNA regulator 1)	-0.807	-0.614	-0.55	inactive
13	BHLHE41 (basic helix-loop-helix family member e41)	-0.299	0.171	1.19	inactive
14	NDUFAF3 (NADH:ubiquinone oxidoreductase complex assembly factor 3)	-1.8	-1.6	-2.13	inactive
15	UHRF1 (ubiquitin like with PHD and ring finger domains 1)	-0.247	-0.45	-0.277	inactive
16	MAG (myelin associated glycoprotein)	0.164	-0.447	-0.996	inactive
17	SQSTM1 (sequestosome 1)	-1.71	-0.915	-1.5	inactive
18	FAM186B (family with sequence similarity 186 member B)	-0.961	-0.355	-0.706	inactive
19	ACOX2 (acyl-CoA oxidase 2)	-0.513	-0.121	-0.00753	inactive
20	IDH3A (isocitrate dehydrogenase (NAD(+)) 3 catalytic subunit alpha)	-0.0737	-0.367	-0.216	inactive
21	POC5 (POC5 centriolar protein)	0.197	0.648	0.158	inactive
22	MUC2 (mucin 2, oligomeric mucus/gel-forming)	-0.85	-0.436	-1.24	inactive
23	DDX49 (DEAD-box helicase 49)	-1.72	-1.35	-1.12	inactive
24	LDB3 (LIM domain binding 3)	-0.414	-0.492	-1.1	inactive
25	LINC00475 (long independently transcribed non-coding RNA 475)	-0.15	1.02	-0.568	inactive
26	LHPP	-0.159	-0.487	-0.0997	inactive
27	TRAK2 (trafficking kinesin protein 2)	-0.327	0.519	-0.607	inactive
28	ZNF707 (zinc finger protein 707)	0.143	-0.0561	-0.214	inactive
29	SLC30A2	1.37	1.33	1.81	inactive
30	LINC01619 (long independently transcribed non-coding RNA 1619)	-0.287	-0.0811	-0.48	inactive
31	ABLIM3 (actin binding LIM protein family member 3)	0.17	0.718	0.659	inactive
32	SOX30 (SRY-box transcription factor 30)	3.56	4.11	3.81	active
33	NCR3LG1 (natural killer cell cytotoxicity receptor 3 ligand 1)	7.15	6.24	6.68	active
34	ZNF148 (zinc finger protein 148)	-0.458	-0.401	-0.232	inactive
35	AGTR2 (angiotensin II receptor type 2)	3.77	2.15	2.66	active
36	C1orf226 (chromosome 1 open reading frame 226)	-0.489	-0.269	-0.583	inactive
37	MAMSTR	0.315	0.172	0.33	inactive
38	CLDN19 (claudin 19)	0	-0.0846	0.0185	inactive
39	SLC9A5	-0.369	-0.359	-0.235	inactive
40	LOC285110 (retired record)	-0.659	-0.552	-0.427	inactive
41	LOC388586 (retired record)	-1.15	-0.865	-0.82	inactive
42	ASCL4 (achaete-scute family bHLH transcription factor 4)	-0.49	0.127	0.902	inactive
43	ANXA2R-AS1 (ANXA2R antisense RNA 1)	2.18	0.193	1.97	inactive
44	SDR16C5 (short chain dehydrogenase/reductase family 16C member 5)	0.51	0.181	-0.0249	inactive
45	RPL23P8 (ribosomal protein L23 pseudogene 8)	-1.63	-1.57	-1.41	inactive
46	FBXL19 (F-box and leucine rich repeat protein 19)	0.292	0.333	0.931	inactive
47	LINC02396 (long independently transcribed non-coding RNA 2396)	-1.25	-0.976	-1.02	inactive
48	LOC387686 (retired record)	-0.478	-0.111	0.124	inactive
49	IGDCC3 (immunoglobulin superfamily DCC subclass member 3)	1.42	0.723	0.583	inactive
50	SET (SET nuclear proto-oncogene)	0.233	0.0282	-0.609	inactive
51	LOC441998 (retired record)	1.08	0.82	1.05	inactive
52	UGT2A1 (UDP glucuronosyltransferase family 2 member A1 complex locus)	-0.375	-0.577	-0.0643	inactive
53	CELA2A (chymotrypsin like elastase 2A)	-0.841	0.861	-0.192	inactive
54	YBX3 (Y-box binding protein 3)	0.555	0.889	0.541	inactive
55	GNG2 (G protein subunit gamma 2)	1.36	1.06	0.864	inactive
56	HRAS (HRas proto-oncogene, GTPase)	-1.69	-1.43	-1.65	inactive
57	OR10A3 (olfactory receptor family 10 subfamily A member 3)	-0.918	-1.45	-1.48	inactive
58	CREBBP (CREB binding lysine acetyltransferase)	-1.82	-1.93	-2.13	active
59	NT5C1B (5'-nucleotidase, cytosolic IB)	0.147	-0.119	0.329	inactive
60	OR2T6 (olfactory receptor family 2 subfamily T member 6)	-1.28	-0.838	-1	inactive
61	COLEC10 (collectin subfamily member 10)	-0.447	-0.845	-1.7	inactive
62	CARD16 (caspase recruitment domain family member 16)	0.238	0.186	0.251	inactive
63	HADHA	0.465	0.517	0.576	inactive
64	PRODH2 (proline dehydrogenase 2)	-1.56	-0.678	-1.6	inactive
65	IPO7 (importin 7)	0.259	0.0214	-0.441	inactive
66	GDF9 (growth differentiation factor 9)	-0.12	0.358	0.21	inactive
67	LOC389288 (retired record)	-0.73	-1.2	-0.906	inactive
68	MROH2A (maestro heat like repeat family member 2A)	0.0617	0.536	0.698	inactive
69	RTL8C (retrotransposon Gag like 8C)	0.053	1.05	0.176	inactive
70	CARD10 (caspase recruitment domain family member 10)	0.0904	-0.466	-0.823	inactive
71	SH3TC2 (SH3 domain and tetratricopeptide repeats 2)	0.221	0.645	-0.363	inactive
72	SLC6A4	2.72	2.83	2.59	active
73	OTOL1 (otolin 1)	0.131	0.906	0.891	inactive
74	LOC441574 (retired record)	1.43	0.611	0.807	inactive
75	LEMD3 (LEM domain containing 3)	1.14	-0.461	0.0661	inactive
76	LOC403312 (putative uncharacterized protein MGC39545)	-1.83	-1.57	-1.61	inactive
77	NSRP1 (nuclear speckle splicing regulatory protein 1)	-1.21	-1.24	-1.49	inactive
78	TM4SF20 (transmembrane 4 L six family member 20)	-0.999	-0.424	-0.164	inactive
79	ARFIP1 (ARF interacting protein 1)	-0.371	0.728	-1.53	inactive
80	FKBP1A (FKBP prolyl isomerase 1A)	0.0486	-0.00617	0.187	inactive
81	NSL1 (NSL1 component of MIS12 kinetochore complex)	-0.165	0.492	1.42	inactive
82	PAK5 (p21 (RAC1) activated kinase 5)	-1.13	-0.0475	-1.36	inactive
83	LOC388022 (retired record)	-0.508	-0.374	-0.241	inactive
84	POGZ (pogo transposable element derived with ZNF domain)	0.962	1.2	1.86	inactive
85	C1QTNF7 (C1q and TNF related 7)	5.26	3.5	4.18	active
86	TP63 (tumor protein p63)	1.17	0.945	0.73	inactive
87	LOC440282 (retired record)	-1.76	-1.75	-1.8	inactive
